{"sequences": {"note": "Protein sequences, listed by entry. Tags and fused reporters are not part of them.", "UniProt P84022": "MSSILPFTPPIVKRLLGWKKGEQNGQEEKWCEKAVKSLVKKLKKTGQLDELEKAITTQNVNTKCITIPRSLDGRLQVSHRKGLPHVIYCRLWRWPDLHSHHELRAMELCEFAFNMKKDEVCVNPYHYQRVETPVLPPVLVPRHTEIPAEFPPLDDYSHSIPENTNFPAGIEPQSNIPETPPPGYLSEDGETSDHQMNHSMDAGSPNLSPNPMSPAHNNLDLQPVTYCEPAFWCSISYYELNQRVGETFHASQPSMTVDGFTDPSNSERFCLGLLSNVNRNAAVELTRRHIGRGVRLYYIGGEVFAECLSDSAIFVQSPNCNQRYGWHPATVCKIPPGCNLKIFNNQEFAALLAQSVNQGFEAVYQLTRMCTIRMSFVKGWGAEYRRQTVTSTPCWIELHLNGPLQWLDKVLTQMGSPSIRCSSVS", "UniProt Q92769": "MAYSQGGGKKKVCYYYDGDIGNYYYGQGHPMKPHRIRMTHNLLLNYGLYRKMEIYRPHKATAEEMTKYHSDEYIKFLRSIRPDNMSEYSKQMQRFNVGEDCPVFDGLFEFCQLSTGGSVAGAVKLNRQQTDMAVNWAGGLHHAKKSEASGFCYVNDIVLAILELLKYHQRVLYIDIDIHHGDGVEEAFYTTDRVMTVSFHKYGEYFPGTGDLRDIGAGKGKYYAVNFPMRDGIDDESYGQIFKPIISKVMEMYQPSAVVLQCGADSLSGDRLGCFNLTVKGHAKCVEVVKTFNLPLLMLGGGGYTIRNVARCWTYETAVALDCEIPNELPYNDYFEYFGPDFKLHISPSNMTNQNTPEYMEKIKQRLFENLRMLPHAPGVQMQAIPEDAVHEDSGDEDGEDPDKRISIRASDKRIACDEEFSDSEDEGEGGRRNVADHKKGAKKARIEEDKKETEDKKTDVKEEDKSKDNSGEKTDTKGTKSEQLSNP", "UniProt Q13485": "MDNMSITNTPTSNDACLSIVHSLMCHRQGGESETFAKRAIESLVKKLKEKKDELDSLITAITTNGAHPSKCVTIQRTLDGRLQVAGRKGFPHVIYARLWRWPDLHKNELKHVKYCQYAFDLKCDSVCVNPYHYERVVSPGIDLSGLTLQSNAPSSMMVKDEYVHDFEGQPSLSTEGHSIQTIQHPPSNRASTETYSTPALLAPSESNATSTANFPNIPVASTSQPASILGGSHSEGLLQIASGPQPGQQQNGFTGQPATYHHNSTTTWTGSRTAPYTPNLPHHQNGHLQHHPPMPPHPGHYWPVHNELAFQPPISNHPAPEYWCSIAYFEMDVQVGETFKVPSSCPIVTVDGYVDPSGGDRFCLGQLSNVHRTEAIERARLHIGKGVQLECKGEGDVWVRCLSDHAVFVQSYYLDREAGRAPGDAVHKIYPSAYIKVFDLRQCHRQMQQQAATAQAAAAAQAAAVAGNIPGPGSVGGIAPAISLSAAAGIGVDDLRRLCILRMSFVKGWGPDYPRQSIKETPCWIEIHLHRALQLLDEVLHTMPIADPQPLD", "UniProt Q15796": "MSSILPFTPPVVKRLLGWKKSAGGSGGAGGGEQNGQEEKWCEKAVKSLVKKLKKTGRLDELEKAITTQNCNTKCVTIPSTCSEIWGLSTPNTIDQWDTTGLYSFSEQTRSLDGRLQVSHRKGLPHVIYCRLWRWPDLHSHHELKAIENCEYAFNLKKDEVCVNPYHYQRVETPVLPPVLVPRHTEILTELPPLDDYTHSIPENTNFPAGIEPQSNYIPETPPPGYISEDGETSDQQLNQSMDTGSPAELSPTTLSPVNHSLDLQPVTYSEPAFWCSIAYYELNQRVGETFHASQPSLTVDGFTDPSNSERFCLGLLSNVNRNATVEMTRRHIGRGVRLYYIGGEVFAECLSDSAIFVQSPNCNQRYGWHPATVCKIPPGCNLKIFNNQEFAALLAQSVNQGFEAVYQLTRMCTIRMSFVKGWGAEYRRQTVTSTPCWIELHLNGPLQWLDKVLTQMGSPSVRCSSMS"}, "source": "paper PMC10439933", "key": {"SMAD3, flag-tagged clone": {"molecular_target": "SMAD3, flag-tagged clone (UniProt P84022)", "assay": "co-IP; dual crosslinked HEK293T/17 cells stably expressing C-terminally flag-tagged SMAD3 or HDAC2 clones or empty vector; precipitation with anti-flag antibody"}, "[1]": {"molecular_target": "T1, SKI (human (endogenous in patient-derived BTSC lines)) (UniProt P12755)", "T1 sequence": "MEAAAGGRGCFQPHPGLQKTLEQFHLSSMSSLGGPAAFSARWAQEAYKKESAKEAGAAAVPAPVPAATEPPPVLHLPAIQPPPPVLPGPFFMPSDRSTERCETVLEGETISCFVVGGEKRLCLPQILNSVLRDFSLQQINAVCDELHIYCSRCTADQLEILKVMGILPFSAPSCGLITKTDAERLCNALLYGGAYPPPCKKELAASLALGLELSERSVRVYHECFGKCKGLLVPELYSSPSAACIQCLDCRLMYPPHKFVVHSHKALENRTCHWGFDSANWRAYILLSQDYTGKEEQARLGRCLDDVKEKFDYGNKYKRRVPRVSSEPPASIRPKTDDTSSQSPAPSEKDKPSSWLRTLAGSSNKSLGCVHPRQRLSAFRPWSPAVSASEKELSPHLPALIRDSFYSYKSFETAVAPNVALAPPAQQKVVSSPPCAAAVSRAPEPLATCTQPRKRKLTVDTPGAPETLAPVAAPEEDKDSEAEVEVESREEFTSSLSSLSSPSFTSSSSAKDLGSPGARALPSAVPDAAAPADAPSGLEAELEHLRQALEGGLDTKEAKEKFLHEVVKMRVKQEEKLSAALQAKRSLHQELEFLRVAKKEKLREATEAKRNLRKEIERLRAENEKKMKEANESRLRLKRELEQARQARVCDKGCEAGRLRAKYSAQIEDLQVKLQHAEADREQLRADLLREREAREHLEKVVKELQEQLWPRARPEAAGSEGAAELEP", "assay": "co-IP; endogenous proteins of BTSC lines (BT67, BT147); cells dual crosslinked (dithiobis(succinimidyl propionate) 30 min, 1% formaldehyde 10 min); IP buffer 50 mM Tris-HCl pH 8.0, 150 mM NaCl, 1.0 mM EDTA, 0.5% Nonidet P-40; 500 ug extract with 5 ug antibody (HDAC1, HDAC2, SMAD3, SKI or SMAD4) overnight at 4 °C, protein G Dynabeads; also sequential co-IP; cells also treated with romidepsin or DMSO (24, 48, 72 h), with SMAD3 KO, HDAC2 KO or SMAD3 overexpression"}, "[2]": {"molecular_target": "HDAC2 (human (endogenous in patient-derived BTSC lines)) (UniProt Q92769)", "assay": "co-IP; endogenous proteins of BTSC lines (BT67, BT147); cells dual crosslinked (dithiobis(succinimidyl propionate) 30 min, 1% formaldehyde 10 min); IP buffer 50 mM Tris-HCl pH 8.0, 150 mM NaCl, 1.0 mM EDTA, 0.5% Nonidet P-40; 500 ug extract with 5 ug antibody (HDAC1, HDAC2, SMAD3, SKI or SMAD4) overnight at 4 °C, protein G Dynabeads; also sequential co-IP; cells also treated with romidepsin or DMSO (24, 48, 72 h), with SMAD3 KO, HDAC2 KO or SMAD3 overexpression"}, "[3]": {"molecular_target": "T1, SKI (human (endogenous in patient-derived BTSC lines))", "assay": "proximity ligation; in situ PLA (Duolink) in adherent BTSCs fixed in 3.7% formaldehyde; pairs of primary antibodies; PLA foci counted in 30 nuclei; romidepsin or vehicle for 24 h"}, "[4]": {"molecular_target": "HDAC2 (human (endogenous in patient-derived BTSC lines)) (UniProt Q92769)", "assay": "proximity ligation; in situ PLA (Duolink) in adherent BTSCs fixed in 3.7% formaldehyde; pairs of primary antibodies; PLA foci counted in 30 nuclei; romidepsin or vehicle for 24 h"}, "[5]": {"molecular_target": "SMAD3 (human (endogenous in patient-derived BTSC lines)) (UniProt P84022)", "assay": "co-IP; endogenous proteins of BTSC lines (BT67, BT147); cells dual crosslinked (dithiobis(succinimidyl propionate) 30 min, 1% formaldehyde 10 min); IP buffer 50 mM Tris-HCl pH 8.0, 150 mM NaCl, 1.0 mM EDTA, 0.5% Nonidet P-40; 500 ug extract with 5 ug antibody (HDAC1, HDAC2, SMAD3, SKI or SMAD4) overnight at 4 °C, protein G Dynabeads; also sequential co-IP; cells also treated with romidepsin or DMSO (24, 48, 72 h), with SMAD3 KO, HDAC2 KO or SMAD3 overexpression"}, "[6]": {"molecular_target": "SMAD4 (human (endogenous in patient-derived BTSC lines)) (UniProt Q13485)", "assay": "co-IP; endogenous proteins of BTSC lines (BT67, BT147); cells dual crosslinked (dithiobis(succinimidyl propionate) 30 min, 1% formaldehyde 10 min); IP buffer 50 mM Tris-HCl pH 8.0, 150 mM NaCl, 1.0 mM EDTA, 0.5% Nonidet P-40; 500 ug extract with 5 ug antibody (HDAC1, HDAC2, SMAD3, SKI or SMAD4) overnight at 4 °C, protein G Dynabeads; also sequential co-IP; cells also treated with romidepsin or DMSO (24, 48, 72 h), with SMAD3 KO, HDAC2 KO or SMAD3 overexpression"}, "[7]": {"molecular_target": "SMAD3, constitutively overexpressed in BT67 cells (AAVS1/SMAD3+) (UniProt P84022)", "assay": "co-IP; endogenous proteins of BTSC lines (BT67, BT147); cells dual crosslinked (dithiobis(succinimidyl propionate) 30 min, 1% formaldehyde 10 min); IP buffer 50 mM Tris-HCl pH 8.0, 150 mM NaCl, 1.0 mM EDTA, 0.5% Nonidet P-40; 500 ug extract with 5 ug antibody (HDAC1, HDAC2, SMAD3, SKI or SMAD4) overnight at 4 °C, protein G Dynabeads; also sequential co-IP; cells also treated with romidepsin or DMSO (24, 48, 72 h), with SMAD3 KO, HDAC2 KO or SMAD3 overexpression"}}, "note": "These are yes or no findings as the source states them, for the method shown. In cells and extracts the contact can be indirect. Some binding calls cover weakened binding; strength is not graded here.", "data": [{"substance": "HDAC2 in HEK293T/17 cells (from UniProt Q92769 1-488)", "values": [{"measurement": "binding", "setting": "SMAD3, flag-tagged clone", "value": "binds"}]}, {"substance": "SMAD3 (from UniProt P84022 1-425)", "values": [{"measurement": "binding", "setting": "[1]", "value": "binds"}, {"measurement": "binding", "setting": "[2]", "value": "binds"}, {"measurement": "binding", "setting": "[3]", "value": "binds"}, {"measurement": "binding", "setting": "[4]", "value": "binds"}]}, {"substance": "SMAD2 (from UniProt Q15796 1-467)", "values": [{"measurement": "binding", "setting": "[2]", "value": "no binding"}]}, {"substance": "HDAC2 (from UniProt Q92769 1-488)", "values": [{"measurement": "binding", "setting": "[1]", "value": "binds"}, {"measurement": "binding", "setting": "[5]", "value": "binds"}, {"measurement": "binding", "setting": "[6]", "value": "binds"}, {"measurement": "binding", "setting": "[7]", "value": "binds"}]}, {"substance": "phospho-SMAD3 (from UniProt P84022 1-425)", "values": [{"measurement": "binding", "setting": "[2]", "value": "binds"}]}]}
